In PubChem BioAssay AID540276 (National Center for Advancing Translational Sciences (NCATS), 2011):
The whole screen tested about 300,000 compounds, of which about 5,400 (1.8%) were called active. Inconclusive results, whose numbers are uncertain, are shown with a selection of clear calls. Calls come from the whole dose curve; tested in HEK293 cells. Potencies of inconclusive entries are doubtful fits and often do not repeat.

experiment: qHTS for inhibitors of binding or entry into cells for Marburg Virus; conditions: Marburg virus pseudotyped entry inhibition, cell reporter; activity change, negative = inhibition: at 37.8 µM (top of the series) unless noted
% is set by controls: 0 for no effect and ±100 for the full control effect; potency is the fitted concentration of half-maximal effect.

Structure (SMILES)	activity change, negative = inhibition	Potency
CCOC(=O)c1sc(NC(=O)c2ccc(S(=O)(=O)N3CCOCC3)cc2)nc1-c1ccccc1	inactive: -3.27%	
COc1cc(OC)c(C(=O)OC(C)C(=O)Nc2cc(C(F)(F)F)ccc2Cl)cc1OC (centres undefined)		inconclusive: 1 µM [inhibitor, partial curve, poor fit]
COc1cc2nc(C3CCC3)nc(N3CCN(c4ccccn4)CC3)c2cc1OC		inconclusive: 12.6 µM [inhibitor, partial curve, poor fit]
COCCN(Cc1cc2cc(C)c(C)cc2nc1Cl)C(=O)N1CCOCC1		inconclusive: 35.5 µM [inhibitor, single point]
CC(C)CSc1ncnc2c1oc1nc3c(cc12)COC(C)(C)C3	inactive: 12.6%	
CCCCN(CC)CCNC(=O)c1cc2c(=O)[nH]c3ccccc3c2n1C		inconclusive: 15.8 µM [inhibitor, partial curve, poor fit]
COC(=O)c1ccc(COc2ccc(C)cc2[N+](=O)[O-])o1		inconclusive: 1 µM [activator, full curve, poor fit]
Cc1cc(NC(=O)c2ccc(S(=O)(=O)N3CCCC3)cc2)nc2c1c(=O)oc1ccccc12		inconclusive: 1.26 µM [inhibitor, partial curve, poor fit]
CC(Sc1ncc(C(F)(F)F)cc1Cl)C(=O)NC(N)=O (centres undefined)	inactive: -10.1% [at 46.1 µM]	
CC1(C)Cc2c(sc3c2c(=N)n(Cc2ccco2)c(=O)n3Cc2ccc(Cl)cc2)CO1		inconclusive: 17.8 µM [inhibitor, single point]
CSc1ccccc1NC(=O)C1CC(c2ccccc2O)=NO1 (centres undefined)	inactive: 0.658%	
COc1ccc(NC(=O)COC(=O)c2ccc(Br)o2)cc1OC		inconclusive: 17.8 µM [activator, partial curve, poor fit]
C=CCNCCCOc1ccc(Cl)cc1C(C)(C)C		inconclusive: 35.5 µM [inhibitor, single point]
COc1ccc(S(=O)(=O)N(C)c2ccc(C(=O)NCC3CCCO3)cc2)cc1OC (centres undefined)		inconclusive: 1 µM [inhibitor, full curve, poor fit]
NS(=O)(=O)c1ccc(CNC(=O)CNC(=O)c2ccc(Br)o2)cc1	inactive: 21.4% [at 46.1 µM]	
CCOc1ccc2oc(C(=O)NC3CC(C)(C)NC(C)(C)C3)c(C)c2c1		inconclusive: 18.3 µM [inhibitor, single point]
CCCC(C(=O)NCc1ccco1)N(C(=O)CNS(=O)(=O)c1ccccc1)c1ccc(OC)cc1 (centres undefined)		inconclusive: 35.5 µM [inhibitor, single point]
Cc1ccc(-c2nc(CCN3C(=O)c4ccccc4C3=O)cs2)cc1		inconclusive: 14.6 µM [inhibitor, single point]
COC(=O)c1ccc(Cl)c(-c2ccc(/C=N/NC(=O)Nc3ccccc3)o2)c1	inactive: 4.62%	
O=C(c1ccc(OC2CCN(C/C=C/c3ccc(F)cc3)CC2)cc1)N1CCCCC1		inconclusive: 17.8 µM [inhibitor, partial curve, poor fit]
COc1ccc(C2CC(c3ccccc3)=NN2C(=O)CN2CCN(Cc3ccccc3)CC2)cc1 (centres undefined)		inconclusive: 5.62 µM [inhibitor, single point]
CC(=O)c1cccc(Nc2nc(=O)c3cccnc3s2)c1	inactive: -12.7%	

Another view of some results above:

| Structure (SMILES) | activity change, negative = inhibition | Potency |
| --- | --- | --- |
| C=CCNCCCOc1ccc(Cl)cc1C(C)(C)C |  | inconclusive: 35.5 µM [inhibitor, single point] |
| COc1ccc(S(=O)(=O)N(C)c2ccc(C(=O)NCC3CCCO3)cc2)cc1OC (centres undefined) |  | inconclusive: 1 µM [inhibitor, full curve, poor fit] |
| NS(=O)(=O)c1ccc(CNC(=O)CNC(=O)c2ccc(Br)o2)cc1 | inactive: 21.4% [at 46.1 µM] |  |

Continued.

Structure (SMILES)	activity change, negative = inhibition	Potency
CCOc1ccc(OCc2ccc(C(=O)NC(C)(C)C)o2)cc1		inconclusive: 6.31 µM [inhibitor, partial curve, poor fit]
CCn1c(SCC(=O)Nc2ncc(C(F)(F)F)cc2Cl)nnc1-c1cccc(C)c1	inactive: 7.92%	
COC(=O)c1ccccc1NC(=O)[C@H]1COc2ccccc2O1	inactive: -31.9%	
COc1ccccc1C(CNC(=S)NCc1ccccc1)N1CCCC1 (centres undefined)		active: 5.62 µM
CC(C)C(C)(C#N)NC(=O)CSc1nc2scc(-c3ccco3)c2c(=O)n1-c1ccccc1 (centres undefined)	inactive: -11.6%	
Cc1nc(Cc2nnc(SCC(=O)N3CCN(c4ccccc4)CC3)o2)cs1		inconclusive: 12.6 µM [activator, single point]
COc1ccc(CCN(C)C(=O)c2cc(S(=O)(=O)NCc3ccccc3)ccc2C)cc1OC		inconclusive: 35.5 µM [inhibitor, single point]
CCOC(=O)C1=C(C)NC(C)=C(C(=O)OCC)C1C(=O)OCC(=O)NCc1ccccc1		inconclusive: 5.62 µM [inhibitor, partial curve, poor fit]
C=C(C)C(=O)NNc1ccccc1		inconclusive: 14.1 µM [inhibitor, single point]
COc1ccc(F)c(CN2CCC(n3nccc3NC(=O)CCCc3ccccc3)CC2)c1	inactive: -13.8%	
O=c1c(-c2ccccc2)[n+]([O-])c2ccccc2n1O	inactive: -1.92%	
Cc1nc2ccc([N+](=O)[O-])cc2c(=O)n1Cc1ccc(Br)cc1		inconclusive: 1 µM [inhibitor, full curve]
COc1cccc(-c2nnc(-c3ccccc3NC(=O)c3cccc(C(F)(F)F)c3)o2)c1	inactive: 26.4% [at 46.1 µM]	
COc1cccc(O)c1CN1CCC(n2nccc2NC(=O)c2ccc3c(c2)OCO3)CC1		inconclusive: 7.94 µM [inhibitor, partial curve, poor fit]
CCc1ccc(NC(=S)Nc2cccc3cnccc23)cc1		inconclusive: 12.6 µM [inhibitor, partial curve]
Cc1ccc(CN(C)C(=O)CSc2nnc3n2CCCCC3)c(C)c1		inconclusive: 2.82 µM [activator, single point]
COCC1CCCN(Cc2cn(Cc3ccccc3)nc2-c2cc3ccccc3o2)C1 (centres undefined)		active: 2.51 µM
COc1cccc(N2CCN(C(=O)c3cccn4c(=O)c5c(C)c(C)sc5nc34)CC2)c1	inactive: -8.98% [at 46.1 µM]	
CC(=O)OC1N=C(c2ccccc2Cl)c2cc(Br)ccc2NC1=O (centres undefined)		inconclusive: 11.2 µM [inhibitor, partial curve, poor fit]
Cc1ccc(/C=C/C(=O)c2ccccc2O)cc1		inconclusive: 25.1 µM [inhibitor, single point]
CC(/C=N/NC(=O)c1cccnc1)=C\c1ccccc1	inactive: -0.915% [at 46.1 µM]	
CN1CCN(c2ccc([N+](=O)[O-])c(-n3nc(-c4ccccc4)c4ccccc4c3=O)c2)CC1		inconclusive: 25.1 µM [inhibitor, partial curve, poor fit]
